Test results from publication doi:10.1101/2022.09.22.509106.
Results are given in words; binding and its absence hold for the method and conditions named. Tags and fused reporters may be left off the sequences shown. Blank lines part the entries; values can stand above or below the binder they belong to.

What was measured:
[1] = target: purified human complement C4 (human); experiment: ELISA
[2] = target: purified human complement C3 (human); experiment: ELISA

- binding [1]: no binding (tested: 4 µg/mL)
- binding [2]: no binding (tested: 4 µg/mL)
B1: neuronal pentraxin 2 (Nptx2), purified recombinant, His-tagged (protein, UniProt P47972 16-431)
chain: GAQDSPAPGSRFVCTALPPEAVHAGCPLPAMPMQGGAQSPEEELRAAVLQLRETVVQQKETLGAQREAIRELTGKLARCEGLAGGKARGAGATGKDTMGDLPRDPGHVVEQLSRSLQTLKDRLESLEHQLRANVSNAGLPGDFREVLQQRLGELERQLLRKVAELEDEKSLLHNETSAHRQKTESTLNALLQRVTELERGNSAFKSPDAFKVSLPLRTNYLYGKIKKTLPELYAFTICLWLRSSASPGIGTPFSYAVPGQANEIVLIEWGNNPIELLINDKVAQLPLFVSDGKWHHICVTWTTRDGMWEAFQDGEKLGTGENLAPWHPIKPGGVLILGQEQDTVGGRFDATQAFVGELSQFNIWDRVLRAQEIVNIANCSTNMPGNIIPWVDNNVDVFGGASKWPVETCEERLLDL

- binding [1]: no binding (tested: 4 µg/mL)
- binding [2]: no binding (tested: 4 µg/mL)
B2: neuronal pentraxin 1 (Nptx1), purified recombinant, His-tagged (protein, UniProt Q15818 23-432)
chain: QDFGPTRFICTSVPVDADMCAASVAAGGAEELRSSVLQLRETVLQQKETILSQKETIRELTAKLGRCESQSTLDPGAGEARAGGGRKQPGSGKNTMGDLSRTPAAETLSQLGQTLQSLKTRLENLEQYSRLNSSSQTNSLKDLLQSKIDELERQVLSRVNTLEEGKGGPRNDTEERVKIETALTSLHQRISELEKGQKDNRPGDKFQLTFPLRTNYMYAKVKKSLPEMYAFTVCMWLKSSATPGVGTPFSYAVPGQANELVLIEWGNNPMEILINDKVAKLPFVINDGKWHHICVTWTTRDGVWEAYQDGTQGGSGENLAPYHPIKPQGVLVLGQEQDTLGGGFDATQAFVGELAHFNIWDRKLTPGEVYNLATCSTKALSGNVIAWAESHIEIYGGATKWTFEACRQIN
